Test results reported in paper PMC10714334 (The Journal of Biological Chemistry, 2023).
Plain letter strings leave the end groups untold.

Assay: general procedure: Fmoc solid-phase peptide synthesis
Settings: whole synthesis

Substance	final HPLC purity
AIRQTHAIFFNFFKRR	≥99%
AIRQTHNIFFNFFKRR	≥99%
EARQTHNIFFNFFKRR	≥99%
EIAQTHNIFFNFFKRR	≥99%
EIRATHNIFFNFFKRR	≥99%
EIRQAHNIFFNFFKRR	≥99%
EIRQTANIFFNFFKRR	≥99%
EIRQTHAIFFNFFKRR	≥99%
EIRQTHNAFFNFFKRR	≥98%
EIRQTHNIAFNFFKRR	≥99%
EIRQTHNIFANFFKRR	≥99%
EIRQTHNIFFAFFKRR	≥99%
EIRQTHNIFFNAFKRR	≥99%
EIRQTHNIFFNFAKRR	≥99%
EIRQTHNIFFNFF	≥99%
EIRQTHNIFFNFFARR	≥98%
EIRQTHNIFFNFFK	≥99%
EIRQTHNIFFNFFKAR	≥99%
EIRQTHNIFFNFFKR	≥99%
EIRQTHNIFFNFFKRA	≥99%

Substance	final HPLC purity
EIRQTHNIFFNFFKRR	≥99%
EIRQTHNIFFNFFKRr	≥99%
EIRQTHNIFFNFFKrR	≥99%
EIRQTHNIFFNFFkRR	≥99%
EIRQTHNIFFNFfKRR	≥99%
EIRQTHNIFFNfFKRR	≥99%
EIRQTHNIFFnFFKRR	≥98%
EIRQTHNIFfNFFKRR	≥99%
EIRQTHNIfFNFFKRR	≥99%
EIRQTHNiFFNFFKRR	≥96%
EIRQTHnIFFNFFKRR	≥98%
EIRQThNIFFNFFKRR	≥99%
EIRQtHNIFFNFFKRR	≥99%
EIRqTHNIFFNFFKRR	≥99%
EIrQTHNIFFNFFKRR	≥99%
EiRQTHNIFFNFFKRR	≥99%
IRQTHNIFFNFFKRR	≥99%
QTHNIFFNFFKRR	≥95%
RQTHNIFFNFFKRR	≥99%
eIRQTHNIFFNFFKRR	≥99%
